Hit rate of the full screen: of about 1,800 compounds, fewer than 10 were called active.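 How the source made its calls: active means inhibition of granule release above a set limit; inactive means the rest.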 The list shows a part of the results.
Assay: inhibitors of lytic granule exocytosis, flow cytometry, TALL-104 cells, validation set (AID 651664)
Details: TALL-104 LAMP-1 externalization, at 15.2 µM, stronger effect = higher value, stimulated with thapsigargin and PMA
With `Clc1ccc(CSc2nnc(CN3CCOCC3)n2-c2ccccc2)cc1Cl` the inhibition was inactive: 4.1%.
For `Cc1ccc(S(=O)(=O)Cn2nnnc2CN(Cc2ccco2)Cc2cccs2)cc1`, the inhibition was inactive: 1.5%.
With `CCC(C)NC(=O)Cn1cccc1C(=O)c1ccccc1` (stereo not drawn) the inhibition was inactive: -0.2%.
For `CN1CCN(c2nc(-c3ccccc3)nc3c2oc2ccccc23)CC1`, the inhibition was inactive: 1.5%.
With `COc1cnn(-c2ccccc2)c(=O)c1SCc1ccc(Cl)cc1Cl` the inhibition was inactive: 2.7%.
For `CCOC(=O)c1nn(-c2cccc(C)c2)c2nc(-c3ccccc3)c(C#N)c(=O)n12`, the inhibition was inactive: 3.8%.
With `Cc1ccccc1OCC(=O)Nc1cccc2nsnc12` the inhibition was inactive: 1.6%.
With `Cc1onc(-c2ccccc2Cl)c1C(=O)N1CCN(C(=O)c2ccco2)CC1` the inhibition was inactive: 1.3%.
In the case of `Cc1cc(C(=O)CSc2ccc(Cl)cc2)cc(C)c1OC(=S)N(C)C`, the inhibition is reported as inactive: 0%.
With `O=C1c2ccccc2C(=O)N1CCCCN(C(=O)c1ccco1)c1ccc(Cl)cc1` the inhibition was inactive: -3.6%.
In the case of `COc1ccc(CNC(=O)C(c2ccc(C)o2)N(C(=O)c2csnn2)c2ccc(C(C)C)cc2)cc1` (stereo not drawn), the inhibition is reported as inactive: -1.9%.
For `CC1=NC(=O)C(N=Nc2ccccc2)N1c1ccccc1` (stereo not drawn), the inhibition was inactive: -2.8%.
In the case of `COc1ccc(NC(=O)Cn2nnc(-c3ccccc3NC(=O)c3cccs3)n2)cc1`, the inhibition is reported as inactive: -1.1%.
For `CCCCN(C)C(=O)C1CCN(Cc2ccc(OCc3ccccc3)cc2)CC1`, the inhibition was inactive: 0.8%.
In the case of `CCOC(=O)c1ccc(N/C=C2\CCCCC2=O)cc1`, the inhibition is reported as inactive: -0.3%.
For `COC(=O)c1ccc(/C=N\n2c(C)nnc2C)cc1`, the inhibition was inactive: 1.6%.
With `O=S(=O)(c1cccs1)N1CN(Cc2ccccc2)c2nc3ccccc3nc21` the inhibition was inactive: 4.3%.
With `Cc1ccc(CN2C(=O)CCC2C(=O)NCc2ccco2)cc1` (stereo not drawn) the inhibition was inactive: -1.9%.
For `COc1ccc(OC)c(S(=O)(=O)N2CCN(C34CC5CC(CC(C5)C3)C4)CC2)c1`, the inhibition was inactive: 1.6%.
With `Cc1nc(NCc2ccco2)c2oc3ccccc3c2n1` the inhibition was inactive: -2.5%.
For `Nn1c(SCC(=O)N2CCN(S(=O)(=O)c3ccccc3)CC2)nnc1-c1cccs1`, the inhibition was inactive: -1.8%.
For `O=C1C(NS(=O)(=O)c2cccs2)=C(N2CCN(c3cccc(Cl)c3)CC2)C(=O)c2ccccc21`, the inhibition was inactive: 1.6%.
In the case of `Cc1ccc(-c2c3c(=O)n(C)c(=O)n(C)c3cn2Cc2cccnc2)cc1`, the inhibition is reported as inactive: -0.5%.
In the case of `Cc1cc(C)c2c(N)c(-c3nc4ccccc4[nH]3)sc2n1`, the inhibition is reported as inactive: -4.9%.
In the case of `O=C(Nc1ccc2oc(-c3cccnc3)nc2c1)c1ccc(Br)o1`, the inhibition is reported as inactive: -0.3%.
For `c1ccc(CSc2nnc(-c3cccnc3)o2)cc1`, the inhibition was inactive: 1.8%.
For `C=C(C)CN1C(=O)C(O)(CC(=O)c2ccc3c(c2)OCCO3)c2ccccc21` (stereo not drawn), the inhibition was inactive: 1.5%.
For `O=C(Nc1ccc(NC(=S)NC(=O)c2ccccc2Cl)cc1)c1cccc(Cl)c1`, the inhibition was inactive: 3.5%.
For `CCOc1ccc(/C(O)=C2/C(=O)C(=O)N(CC3CCCO3)C2c2ccc(C)o2)cc1` (stereo not drawn), the inhibition was inactive: -2.9%.
For `c1ccc(COc2ccc(CN3CCN(c4ccccn4)CC3)cc2)cc1`, the inhibition was inactive: -1.3%.
With `CCN1C(=O)C(C(=O)Nc2ccc(OC)cc2)C2CC1(C)Oc1ccccc12` (stereo not drawn) the inhibition was inactive: -0.4%.
With `COc1ccccc1CNC(=O)COC(=O)C1=COCCO1` the inhibition was inactive: 0.1%.
For `COC(=O)c1cc(NC(=O)CN(c2ccc3c(c2)OCO3)S(C)(=O)=O)ccc1Cl`, the inhibition was inactive: 1.7%.
With `O=C(NCC1COc2ccccc2O1)c1cc2ccccc2o1` (stereo not drawn) the inhibition was inactive: 8.2%.
With `CCc1ccc(NC(=S)Nc2cccc(OC)c2)cc1` the inhibition was inactive: -0.9%.
For `O=C(Nc1ccc2oc(=O)ccc2c1)c1cccnc1Cl`, the inhibition was inactive: -1.5%.
In the case of `CC1CCCN(C(=O)C2CCN(CC3CC=CCC3)CC2)C1` (stereo not drawn), the inhibition is reported as inactive: -1.1%.
For `Cc1ccccc1OCC1Cc2c(nc(N)c(C#N)c2N)O1` (stereo not drawn), the inhibition was inactive: -2.8%.
For `O=C(/C=C/c1ccccc1)NCCSc1ccc(Cl)cc1`, the inhibition was inactive: 1.3%.
For `N#CC(=C1CCCC1)c1nc(-c2ccccc2)cs1`, the inhibition was inactive: -1%.
For `CCOC(=O)c1cccc(N2C(=O)C3C(C2=O)C2C=CC3C23CC3)c1` (stereo not drawn), the inhibition was inactive: -3.8%.
For `CC(=O)C(C)Oc1ncn(-c2ccccc2)n1` (stereo not drawn), the inhibition was inactive: -3%.
For `CSc1nn(CCc2ccncc2)c(=S)s1`, the inhibition was inactive: 4.6%.
In the case of `Cc1cccc(NCc2ccccc2O)c1C`, the inhibition is reported as inactive: -1.3%.
For `CC(C)Cn1c2c(c(O)c(C(=O)Nc3ccc(F)cc3)c1=O)CCCC2`, the inhibition was inactive: -2.4%.
In the case of `CCCCn1nnc(NC(=O)Cc2ccc(Cl)cc2)n1`, the inhibition is reported as inactive: -2.5%.
For `CC1=NN(Cc2ccccc2)C(=O)/C1=C\c1ccc(N(C)C)cc1`, the inhibition was inactive: 0.3%.
With `CCn1c(SCC(=O)N2CCCc3ccccc32)nnc1-c1ccco1` the inhibition was inactive: -1.1%.
For `COc1nnc(-c2ccc(N3CCOCC3)c(NC(=O)c3ccco3)c2)c2ccccc12`, the inhibition was inactive: -3.4%.
In the case of `Cc1cc(NC(=O)c2cccc3ccccc23)cc(C)c1OCC(=O)N1CCOCC1`, the inhibition is reported as inactive: -2.8%.
In the case of `CC(c1ccco1)N(C(=O)Nc1ccc(Cl)cc1)c1ccccn1` (stereo not drawn), the inhibition is reported as inactive: -1%.
For `Cc1nn2cc(-c3ccccc3)nc2[nH]c1=O`, the inhibition was inactive: 2.4%.
With `N#Cc1c(N)n(CCOC(=O)c2cccc(Br)c2)c2nc3ccccc3nc12` the inhibition was inactive: -0.6%.
For `COc1ccc2c(-c3ccccc3)cc(N3CCOCC3)nc2c1`, the inhibition was inactive: -1.6%.
With `O=C(c1ccccc1)[C@H]1CC=CC[C@H]1C(=O)O` the inhibition was inactive: -0.5%.
For `Cn1c(-c2ccccc2Br)n[nH]c1=S`, the inhibition was active: 89.2%.
For `CCCn1c(SCC(=O)Nc2cc(Cl)ccc2OC)n[nH]c1=O`, the inhibition was inactive: -3.1%.
In the case of `CCOC(=O)c1cnn(-c2nc3c(C)cccc3s2)c1C(F)(F)F`, the inhibition is reported as inactive: 9.1%.
In the case of `CN(Cc1ccccc1)C(=O)N[C@@H](Cc1ccccc1)C(=O)O`, the inhibition is reported as inactive: -4.9%.
With `COc1ccc(C2CC(=O)c3cnc(N)nc3C2)c(OC)c1` (stereo not drawn) the inhibition was inactive: -2.3%.
In the case of `Nc1nc2ccc(-c3nc4ccccc4o3)cc2s1`, the inhibition is reported as inactive: 0.1%.
For `CSc1ccccc1C(=O)NCc1ccc(S(N)(=O)=O)cc1`, the inhibition was inactive: -0.8%.
For `O=c1oc(Nc2ccccc2F)nc2ccccc12`, the inhibition was inactive: -3.8%.
For `O=C(N/N=C/c1cccc([N+](=O)[O-])c1)C1CC(=O)N(c2ccc(Cl)cc2)C1` (stereo not drawn), the inhibition was inactive: 1.4%.
With `C=CCNc1nc(-c2ccc(Cl)cc2)cs1` the inhibition was inactive: 2.2%.
With `CCOC(=O)c1c(C)oc2c1c1c(c3ccccc32)OCN(Cc2ccccn2)C1` the inhibition was inactive: 0.1%.
In the case of `CN(C)C=NC1=NN(c2cccc(C(F)(F)F)c2)CC1`, the inhibition is reported as inactive: 3.5%.
With `N/C(=N\OS(=O)(=O)c1ccccc1)c1ccncc1` the inhibition was inactive: -2.3%.
In the case of `c1ccc(-n2c(SCC3CCCCO3)nnc2-c2cnccn2)cc1` (stereo not drawn), the inhibition is reported as inactive: 1.1%.
With `COC(=O)c1c(C(C)=O)cnc2ccc(Br)cc12` the inhibition was inactive: -0.8%.
For `CCN1C(=O)C(C)S/C1=N\S(=O)(=O)c1ccc(Cl)s1` (stereo not drawn), the inhibition was inactive: -2.2%.
With `CCOC(=O)C1CCN(C=Nc2cc(C)on2)CC1` the inhibition was inactive: 5.4%.
In the case of `COc1cc2[nH]c3c(N4CCN(c5ccccn5)CC4)ncnc3c2cc1OC`, the inhibition is reported as inactive: 4.3%.
In the case of `CC(=O)N1CCN(c2ccc([N+](=O)[O-])c(NCC3CCCO3)c2)CC1` (stereo not drawn), the inhibition is reported as inactive: -1.3%.
In the case of `Cc1cnc(C(=O)Nc2ccccc2F)cn1`, the inhibition is reported as inactive: -1.1%.
For `CCCOC(=O)CN1C(=O)c2ccccc2C1=O`, the inhibition was inactive: 0.3%.
With `O=C(Nc1ccccc1)N(C1=NCCCCS1)c1ccccc1` the inhibition was inactive: -1.2%.
For `Cc1cc2c(c(=O)n1C)C(C(C)C)C(C#N)=C(N)O2` (stereo not drawn), the inhibition was inactive: 0.7%.
For `FC(F)(F)c1cccc(NC(=S)N2CCN(c3cccc(C(F)(F)F)c3)CC2)c1`, the inhibition was inactive: -4.7%.
With `N#Cc1ccc(C(=O)Nc2ccc(S(=O)(=O)NC3=NCCCCC3)cc2)cc1` the inhibition was inactive: 4.4%.
With `O=C(c1ccc(S(=O)(=O)N2CCCCCC2)cc1)N1CCC(CN2C(=O)c3cccc4cccc(c34)C2=O)CC1` the inhibition was inactive: 0.6%.
For `Cc1cc(/C=N\NC(=O)c2cccs2)c(C)n1-c1ccc2ncccc2c1`, the inhibition was inactive: -1.6%.
With `COc1cc(C2N=C(c3ccccc3)NO2)cc(Br)c1O` (stereo not drawn) the inhibition was inactive: 0.8%.
In the case of `O=C(CSc1ccccn1)N1CCN(C(=O)CSc2ccccn2)CC1`, the inhibition is reported as inactive: 0.4%.
In the case of `O=C(CSc1nc2ccccc2[nH]1)Nc1cc(C(F)(F)F)ccc1N1CCOCC1`, the inhibition is reported as inactive: -2.8%.
For `OCCCN1c2ccccc2Nc2nnc(-c3ccccc3)cc21`, the inhibition was inactive: -0.6%.
For `COCCn1c(SCc2nc3cc(OC)c(OC)cc3c(=O)[nH]2)nnc1-c1ccncc1`, the inhibition was inactive: 2%.
In the case of `CCOC(=O)c1sc(NC(=O)C(CC)Sc2nc3ccccc3[nH]2)nc1C` (stereo not drawn), the inhibition is reported as inactive: -2.5%.
In the case of `CCN(CC(=O)NC(=O)NC1CCCCC1)Cc1nc2ccccc2c(=O)[nH]1`, the inhibition is reported as inactive: -0.9%.
With `CC(C)(C)OC(=O)NCCCC(CCCNC(=O)OC(C)(C)C)C(=O)O` the inhibition was inactive: -2.1%.
In the case of `N#C/C(=C1\CCCN1)c1nc2ccccc2c(=O)[nH]1`, the inhibition is reported as inactive: -2.4%.
With `O=C(/C=C/Nc1ccccc1Br)c1ccccn1` the inhibition was inactive: 4.8%.
In the case of `CC(C)(C(N)=O)N1CCN(c2ncc(C(F)(F)F)cc2Cl)CC1`, the inhibition is reported as inactive: -2.7%.
With `COc1ccccc1Nc1nnc(SCC(=O)c2cc(C)n(CC3CCCO3)c2C)s1` (stereo not drawn) the inhibition was inactive: -2.7%.
With `O=C(Nc1ccc2c(c1)Cc1ccccc1-2)c1cc2ccccc2o1` the inhibition was inactive: 1.7%.
For `Cc1cc(NC(=O)CSc2nnc(-c3ccc(Br)o3)n2Cc2ccccc2)no1`, the inhibition was inactive: -2.5%.
With `COc1ccc(CCNC(=O)COC(=O)c2cnccn2)cc1` the inhibition was inactive: 6.8%.
With `CCOc1ccc2nc(NC(=O)CCC(=O)c3cccs3)sc2c1` the inhibition was inactive: 4%.

Reference: PubChem BioAssay AID651664 (NMMLSC, 2012)
